This is one part of the list.

Protein sequences, listed by entry. Tags and fused reporters are not part of them. Lines headed by an entry give the natural chain unless they say otherwise; changes in a name come on top.
UniProt Q93083: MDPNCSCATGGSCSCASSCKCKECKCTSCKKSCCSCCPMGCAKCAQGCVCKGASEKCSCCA
UniProt P03897, whole entry, looked up: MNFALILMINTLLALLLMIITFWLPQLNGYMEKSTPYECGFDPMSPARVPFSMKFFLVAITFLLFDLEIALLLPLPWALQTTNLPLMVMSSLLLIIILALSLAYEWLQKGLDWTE
UniProt Q2M296: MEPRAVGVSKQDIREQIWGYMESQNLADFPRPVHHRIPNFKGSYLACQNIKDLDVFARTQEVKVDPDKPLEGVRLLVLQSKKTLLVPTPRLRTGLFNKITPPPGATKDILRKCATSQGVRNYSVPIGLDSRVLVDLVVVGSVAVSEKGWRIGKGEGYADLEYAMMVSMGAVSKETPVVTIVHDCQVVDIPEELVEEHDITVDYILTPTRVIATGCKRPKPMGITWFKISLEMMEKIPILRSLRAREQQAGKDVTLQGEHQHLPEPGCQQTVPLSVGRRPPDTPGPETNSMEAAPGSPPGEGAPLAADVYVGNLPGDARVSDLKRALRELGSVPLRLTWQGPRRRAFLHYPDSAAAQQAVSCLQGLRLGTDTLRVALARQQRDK
UniProt P11055, whole entry, looked up: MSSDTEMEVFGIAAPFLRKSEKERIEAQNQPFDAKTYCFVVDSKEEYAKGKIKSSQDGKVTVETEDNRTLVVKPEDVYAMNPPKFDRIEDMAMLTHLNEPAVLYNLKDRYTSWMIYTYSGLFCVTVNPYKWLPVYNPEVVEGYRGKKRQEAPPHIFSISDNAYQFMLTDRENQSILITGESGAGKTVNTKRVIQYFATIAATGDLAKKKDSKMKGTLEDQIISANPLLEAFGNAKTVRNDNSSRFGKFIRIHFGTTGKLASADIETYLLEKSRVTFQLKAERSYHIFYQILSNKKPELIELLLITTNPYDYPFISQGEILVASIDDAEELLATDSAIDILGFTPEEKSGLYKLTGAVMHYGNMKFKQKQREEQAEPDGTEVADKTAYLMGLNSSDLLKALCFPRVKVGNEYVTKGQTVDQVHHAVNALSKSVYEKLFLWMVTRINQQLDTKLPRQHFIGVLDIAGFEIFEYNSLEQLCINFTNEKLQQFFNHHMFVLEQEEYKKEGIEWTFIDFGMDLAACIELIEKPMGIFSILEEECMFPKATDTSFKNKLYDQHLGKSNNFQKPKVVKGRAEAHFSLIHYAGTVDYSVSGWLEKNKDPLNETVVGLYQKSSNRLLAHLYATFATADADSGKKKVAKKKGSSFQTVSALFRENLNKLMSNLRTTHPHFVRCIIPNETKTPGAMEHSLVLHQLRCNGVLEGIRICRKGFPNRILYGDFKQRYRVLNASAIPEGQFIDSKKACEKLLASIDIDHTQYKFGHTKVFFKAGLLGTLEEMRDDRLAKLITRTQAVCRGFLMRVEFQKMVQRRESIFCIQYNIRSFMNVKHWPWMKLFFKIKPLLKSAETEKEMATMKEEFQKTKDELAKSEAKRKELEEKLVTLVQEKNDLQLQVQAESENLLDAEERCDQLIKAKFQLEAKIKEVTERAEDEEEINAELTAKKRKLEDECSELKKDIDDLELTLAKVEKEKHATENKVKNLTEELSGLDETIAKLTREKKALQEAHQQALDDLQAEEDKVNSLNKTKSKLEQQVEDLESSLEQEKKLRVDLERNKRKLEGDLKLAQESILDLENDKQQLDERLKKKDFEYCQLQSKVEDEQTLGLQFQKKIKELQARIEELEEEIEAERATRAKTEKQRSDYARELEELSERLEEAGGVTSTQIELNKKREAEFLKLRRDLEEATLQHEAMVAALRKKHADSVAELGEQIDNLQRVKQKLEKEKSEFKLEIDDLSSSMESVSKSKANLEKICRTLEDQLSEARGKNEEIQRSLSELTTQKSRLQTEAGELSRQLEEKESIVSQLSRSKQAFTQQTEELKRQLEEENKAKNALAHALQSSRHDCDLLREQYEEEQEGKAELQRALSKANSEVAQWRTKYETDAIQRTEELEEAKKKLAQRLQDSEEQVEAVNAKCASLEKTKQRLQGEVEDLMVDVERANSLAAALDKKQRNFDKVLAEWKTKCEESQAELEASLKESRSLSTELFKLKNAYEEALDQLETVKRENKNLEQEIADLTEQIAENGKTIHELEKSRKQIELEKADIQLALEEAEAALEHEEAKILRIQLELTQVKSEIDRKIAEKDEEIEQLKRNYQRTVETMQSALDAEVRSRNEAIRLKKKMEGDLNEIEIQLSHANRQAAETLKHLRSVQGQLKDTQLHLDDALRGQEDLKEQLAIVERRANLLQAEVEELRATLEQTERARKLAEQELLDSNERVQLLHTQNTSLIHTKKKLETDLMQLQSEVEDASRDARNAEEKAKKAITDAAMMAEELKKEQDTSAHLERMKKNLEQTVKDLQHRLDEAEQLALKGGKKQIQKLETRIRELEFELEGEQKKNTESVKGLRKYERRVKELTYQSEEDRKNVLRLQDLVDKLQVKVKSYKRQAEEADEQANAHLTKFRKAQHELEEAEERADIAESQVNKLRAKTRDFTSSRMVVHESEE
UniProt P08590, whole entry, looked up: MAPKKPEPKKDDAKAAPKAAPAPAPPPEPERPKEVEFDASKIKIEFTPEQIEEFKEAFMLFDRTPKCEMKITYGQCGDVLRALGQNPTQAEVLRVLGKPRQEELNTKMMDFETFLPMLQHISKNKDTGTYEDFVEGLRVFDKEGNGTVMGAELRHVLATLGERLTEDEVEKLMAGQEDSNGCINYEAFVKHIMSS
UniProt P13533, whole entry, looked up: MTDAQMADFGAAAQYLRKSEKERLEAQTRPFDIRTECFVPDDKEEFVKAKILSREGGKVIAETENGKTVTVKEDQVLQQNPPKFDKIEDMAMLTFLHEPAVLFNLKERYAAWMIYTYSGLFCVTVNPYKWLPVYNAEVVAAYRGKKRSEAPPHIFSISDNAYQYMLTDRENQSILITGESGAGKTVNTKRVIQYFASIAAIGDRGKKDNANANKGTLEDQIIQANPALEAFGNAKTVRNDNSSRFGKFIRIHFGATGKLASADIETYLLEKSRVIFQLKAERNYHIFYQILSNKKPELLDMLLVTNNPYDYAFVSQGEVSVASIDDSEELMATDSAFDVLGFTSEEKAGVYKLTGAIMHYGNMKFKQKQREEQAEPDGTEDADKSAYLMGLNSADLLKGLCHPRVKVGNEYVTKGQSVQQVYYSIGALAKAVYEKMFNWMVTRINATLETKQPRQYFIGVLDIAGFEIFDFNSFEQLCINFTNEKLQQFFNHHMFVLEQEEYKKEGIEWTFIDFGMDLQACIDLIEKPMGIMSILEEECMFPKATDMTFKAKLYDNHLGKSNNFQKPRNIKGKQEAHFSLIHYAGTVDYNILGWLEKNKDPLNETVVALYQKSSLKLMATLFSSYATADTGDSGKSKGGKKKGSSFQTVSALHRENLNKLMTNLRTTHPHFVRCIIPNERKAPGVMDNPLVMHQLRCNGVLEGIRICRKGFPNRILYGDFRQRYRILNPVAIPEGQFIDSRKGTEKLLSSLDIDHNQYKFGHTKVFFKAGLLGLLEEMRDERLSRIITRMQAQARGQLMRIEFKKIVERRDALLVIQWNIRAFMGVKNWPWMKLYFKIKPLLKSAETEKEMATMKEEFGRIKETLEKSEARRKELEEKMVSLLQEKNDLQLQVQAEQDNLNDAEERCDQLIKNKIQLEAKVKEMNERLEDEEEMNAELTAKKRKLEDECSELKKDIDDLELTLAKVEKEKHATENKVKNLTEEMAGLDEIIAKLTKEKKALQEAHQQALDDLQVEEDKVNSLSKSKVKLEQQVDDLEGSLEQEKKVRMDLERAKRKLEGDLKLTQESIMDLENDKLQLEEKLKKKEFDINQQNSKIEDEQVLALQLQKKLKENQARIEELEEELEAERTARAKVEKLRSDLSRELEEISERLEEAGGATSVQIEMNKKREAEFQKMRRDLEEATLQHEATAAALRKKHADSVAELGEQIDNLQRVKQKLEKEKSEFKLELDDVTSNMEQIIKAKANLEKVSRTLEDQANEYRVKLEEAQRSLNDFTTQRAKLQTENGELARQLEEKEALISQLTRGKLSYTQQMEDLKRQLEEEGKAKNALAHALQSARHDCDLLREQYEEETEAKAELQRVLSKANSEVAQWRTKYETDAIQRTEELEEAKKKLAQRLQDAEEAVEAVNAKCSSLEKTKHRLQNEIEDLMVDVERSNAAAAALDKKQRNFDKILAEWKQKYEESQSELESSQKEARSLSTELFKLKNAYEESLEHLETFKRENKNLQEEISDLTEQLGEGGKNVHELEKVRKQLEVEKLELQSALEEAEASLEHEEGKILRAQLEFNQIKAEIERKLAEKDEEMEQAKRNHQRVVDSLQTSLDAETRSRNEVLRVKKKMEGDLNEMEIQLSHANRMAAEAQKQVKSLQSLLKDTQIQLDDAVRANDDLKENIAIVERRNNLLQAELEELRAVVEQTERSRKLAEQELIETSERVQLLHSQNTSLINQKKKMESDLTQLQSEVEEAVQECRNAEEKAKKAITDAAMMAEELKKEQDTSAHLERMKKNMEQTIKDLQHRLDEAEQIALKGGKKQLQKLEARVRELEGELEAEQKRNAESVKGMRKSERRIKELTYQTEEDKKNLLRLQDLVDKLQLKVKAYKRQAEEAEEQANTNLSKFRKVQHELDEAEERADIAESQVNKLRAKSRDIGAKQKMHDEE
UniProt Q96E29: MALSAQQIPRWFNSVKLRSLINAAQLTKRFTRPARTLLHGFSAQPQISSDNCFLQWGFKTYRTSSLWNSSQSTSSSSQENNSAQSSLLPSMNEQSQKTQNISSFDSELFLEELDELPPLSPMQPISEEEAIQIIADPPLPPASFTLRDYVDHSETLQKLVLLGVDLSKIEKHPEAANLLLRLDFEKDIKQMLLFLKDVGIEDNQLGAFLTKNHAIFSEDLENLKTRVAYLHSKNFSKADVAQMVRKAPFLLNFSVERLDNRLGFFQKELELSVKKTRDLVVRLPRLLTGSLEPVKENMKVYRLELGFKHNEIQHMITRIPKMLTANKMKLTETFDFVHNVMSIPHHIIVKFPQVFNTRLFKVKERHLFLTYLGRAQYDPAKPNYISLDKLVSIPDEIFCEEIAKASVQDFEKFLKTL
UniProt G3V1V0: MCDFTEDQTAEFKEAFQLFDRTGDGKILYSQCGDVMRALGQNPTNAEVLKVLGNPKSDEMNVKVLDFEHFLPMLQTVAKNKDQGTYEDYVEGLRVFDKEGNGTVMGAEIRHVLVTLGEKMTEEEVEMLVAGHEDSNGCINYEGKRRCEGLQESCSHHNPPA
UniProt P13640: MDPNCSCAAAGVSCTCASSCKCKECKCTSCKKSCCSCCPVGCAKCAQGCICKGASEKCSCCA
UniProt Q9H6N6: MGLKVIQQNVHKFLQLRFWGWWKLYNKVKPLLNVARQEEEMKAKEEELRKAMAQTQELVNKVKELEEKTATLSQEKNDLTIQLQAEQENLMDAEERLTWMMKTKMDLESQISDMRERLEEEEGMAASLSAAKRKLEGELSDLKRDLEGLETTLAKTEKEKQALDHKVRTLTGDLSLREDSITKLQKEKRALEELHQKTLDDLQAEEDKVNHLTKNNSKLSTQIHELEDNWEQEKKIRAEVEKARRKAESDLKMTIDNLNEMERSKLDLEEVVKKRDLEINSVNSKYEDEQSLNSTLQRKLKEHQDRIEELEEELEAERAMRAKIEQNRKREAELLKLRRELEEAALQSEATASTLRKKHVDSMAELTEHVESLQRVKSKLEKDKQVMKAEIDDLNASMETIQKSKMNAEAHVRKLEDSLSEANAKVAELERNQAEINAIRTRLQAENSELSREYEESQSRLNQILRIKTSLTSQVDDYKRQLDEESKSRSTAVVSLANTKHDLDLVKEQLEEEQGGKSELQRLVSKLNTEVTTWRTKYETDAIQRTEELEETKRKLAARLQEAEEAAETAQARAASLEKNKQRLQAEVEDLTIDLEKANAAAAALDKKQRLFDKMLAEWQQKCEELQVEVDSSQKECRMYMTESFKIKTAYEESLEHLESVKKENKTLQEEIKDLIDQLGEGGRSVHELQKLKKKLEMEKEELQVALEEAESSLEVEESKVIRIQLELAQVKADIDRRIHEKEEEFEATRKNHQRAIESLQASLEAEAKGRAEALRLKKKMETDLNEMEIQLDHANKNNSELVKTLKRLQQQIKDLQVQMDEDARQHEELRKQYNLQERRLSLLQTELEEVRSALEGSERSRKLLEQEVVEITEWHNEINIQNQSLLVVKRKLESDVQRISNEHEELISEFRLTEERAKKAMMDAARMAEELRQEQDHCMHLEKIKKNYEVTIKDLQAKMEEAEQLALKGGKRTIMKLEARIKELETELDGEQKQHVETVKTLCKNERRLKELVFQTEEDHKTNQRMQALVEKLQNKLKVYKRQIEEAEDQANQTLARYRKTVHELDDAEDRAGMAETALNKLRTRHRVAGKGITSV

Compound in the test: C#Cc1cccc(Nc2ncnc3cc(OCCOC)c(OCCOC)cc23)c1 [erlotinib]
The test can be described thus: log2 fold change, soluble protein after heating vs DMSO (PISA); higher = thermal stabilisation; K562 cells, 10 uM, 30 min; active = over 0.2 and 3.5 SD of the protein, either way, in both replicates (recomputed). The essentials: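 Soluble protein was defined as the supernatant after 21,000xg for 90 min. It came from K562 cells at 2×10^6 cells/mL given 10 μM compound for 30 min, heated in aliquots for 3 min across 48°C-58°C, pooled, and extracted in PBS with 0.5% NP-40 at 4°C, and was quantified by TMTpro 16plex LC-MS/MS with equalised channel sums. Thermal stability against control samples, from duplicates, is reported as log2 fold change.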
On to MT1L (UniProt Q93083), for which the log2 fold change was inactive: -0.003.
The value for MT-ND3 (UniProt P03897) was inactive: -0.123; that for MTHFSD isoform 3 (UniProt Q2M296) was inactive: -0.078; that for MTMR4 (UniProt Q9NYA4) was inactive: -0.052.
The value for MYH3 (UniProt P11055) was inactive: -0.148; that for MYL3 (UniProt P08590) was inactive: -0.003.
The value for MYLK (UniProt Q15746) was inactive: 0.25; that for MYH6 (UniProt P13533) was inactive: 0.24; that for MTA3 (UniProt Q9BTC8) was inactive: -0.04.
For MT-CO1 (UniProt P00395), the log2 fold change was inactive: -0.087.
The value for MTERF3 (UniProt Q96E29) was inactive: -0.011; that for MYL6 (UniProt G3V1V0) was inactive: -0.034; that for MTHFD1L (UniProt B7ZM99) was inactive: -0.093.
The value for MT-ND2 (UniProt P03891) was inactive: -0.067; that for MT1G (UniProt P13640) was inactive: -0.009; that for MYH16 (UniProt Q9H6N6) was inactive: -0.044.

The values are drawn from the supplement of paper PMC10849652.
